Measured values: PMC4942689, “Deciphering the function of the CNGB1b subunit in olfactory CNG channels” (Scientific Reports, 2016)
Some entries of the source have several records that differ or are many. The list is limited to them. The source may hold further records. Values given together differ for a reason that is not stated; they may come from other doses, times, organisms or constructs than stated.

Sequences of proteins named here, by UniProt entry; tags and fusion partners are left off. Residues count along the entry.
UniProt A0A8I5ZN27, 1-858 isoform 2: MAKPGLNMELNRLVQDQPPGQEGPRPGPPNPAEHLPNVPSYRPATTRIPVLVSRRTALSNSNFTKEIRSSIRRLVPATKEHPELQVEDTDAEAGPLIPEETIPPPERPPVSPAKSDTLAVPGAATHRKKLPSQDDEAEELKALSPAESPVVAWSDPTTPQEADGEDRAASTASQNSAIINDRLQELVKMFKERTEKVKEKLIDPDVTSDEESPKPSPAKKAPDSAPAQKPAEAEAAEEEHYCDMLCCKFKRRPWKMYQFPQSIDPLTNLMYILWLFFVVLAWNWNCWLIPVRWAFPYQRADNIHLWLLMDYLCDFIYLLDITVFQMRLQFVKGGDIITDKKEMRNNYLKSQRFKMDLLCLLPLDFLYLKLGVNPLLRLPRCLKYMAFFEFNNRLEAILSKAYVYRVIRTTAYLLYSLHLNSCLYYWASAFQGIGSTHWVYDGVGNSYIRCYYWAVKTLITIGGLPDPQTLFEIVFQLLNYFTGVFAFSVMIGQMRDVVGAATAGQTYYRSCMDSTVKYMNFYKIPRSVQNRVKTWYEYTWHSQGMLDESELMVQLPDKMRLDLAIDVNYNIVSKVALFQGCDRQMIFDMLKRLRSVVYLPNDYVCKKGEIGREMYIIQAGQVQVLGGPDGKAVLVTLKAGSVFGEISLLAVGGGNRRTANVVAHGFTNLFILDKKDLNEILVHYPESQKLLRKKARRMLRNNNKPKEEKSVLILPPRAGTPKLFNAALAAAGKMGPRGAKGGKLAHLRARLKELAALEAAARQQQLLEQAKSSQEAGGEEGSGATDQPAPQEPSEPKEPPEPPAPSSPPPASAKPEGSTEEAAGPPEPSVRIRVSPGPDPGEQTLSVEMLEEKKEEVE
UniProt Q00195, whole entry R538E: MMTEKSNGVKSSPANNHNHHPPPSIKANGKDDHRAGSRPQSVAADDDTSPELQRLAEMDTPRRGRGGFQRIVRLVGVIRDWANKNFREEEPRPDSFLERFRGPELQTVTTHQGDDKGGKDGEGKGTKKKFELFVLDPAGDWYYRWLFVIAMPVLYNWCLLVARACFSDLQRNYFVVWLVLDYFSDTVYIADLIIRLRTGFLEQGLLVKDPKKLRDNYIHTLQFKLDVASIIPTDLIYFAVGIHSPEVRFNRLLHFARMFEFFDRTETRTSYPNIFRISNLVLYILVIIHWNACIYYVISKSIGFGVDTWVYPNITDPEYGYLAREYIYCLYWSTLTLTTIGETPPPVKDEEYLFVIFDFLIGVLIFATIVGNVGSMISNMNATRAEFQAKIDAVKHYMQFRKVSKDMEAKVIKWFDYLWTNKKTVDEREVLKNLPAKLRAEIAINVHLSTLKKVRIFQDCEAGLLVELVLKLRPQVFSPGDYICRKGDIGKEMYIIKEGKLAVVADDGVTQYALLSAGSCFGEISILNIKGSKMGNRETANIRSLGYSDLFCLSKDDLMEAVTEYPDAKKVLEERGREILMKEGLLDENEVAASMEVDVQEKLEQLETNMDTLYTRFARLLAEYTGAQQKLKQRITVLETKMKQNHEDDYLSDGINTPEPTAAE
UniProt Q64359, whole entry R430E: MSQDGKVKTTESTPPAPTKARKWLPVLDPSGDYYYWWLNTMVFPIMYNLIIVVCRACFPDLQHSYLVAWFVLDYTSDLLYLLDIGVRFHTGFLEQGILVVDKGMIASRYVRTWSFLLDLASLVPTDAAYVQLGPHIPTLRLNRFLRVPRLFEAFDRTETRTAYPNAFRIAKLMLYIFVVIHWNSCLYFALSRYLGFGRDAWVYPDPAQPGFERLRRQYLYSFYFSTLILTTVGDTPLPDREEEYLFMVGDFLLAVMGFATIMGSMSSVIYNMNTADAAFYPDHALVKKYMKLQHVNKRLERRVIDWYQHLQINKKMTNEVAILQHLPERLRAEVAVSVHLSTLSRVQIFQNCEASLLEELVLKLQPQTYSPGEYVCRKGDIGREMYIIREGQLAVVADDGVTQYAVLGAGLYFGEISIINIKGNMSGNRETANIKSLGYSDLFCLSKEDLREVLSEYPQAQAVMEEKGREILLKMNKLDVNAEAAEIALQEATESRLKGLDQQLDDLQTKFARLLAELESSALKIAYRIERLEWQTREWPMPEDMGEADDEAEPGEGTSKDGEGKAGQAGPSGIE

Target: CNGA2RE:A4RE:B1b (Rattus norvegicus, UniProt A0A8I5ZN27+Q00195+Q64359, R430E/R538E)
Experiment: Concentration-activation relationship and activation by fluorescent ligands, patch-clamp
Type: biochemical
Conditions: Hill coefficient of high affinity component; H was set to unity (fixed)

Compound: Nc1nc2c(ncn2[C@@H]2O[C@@H]3COP(=O)(O)O[C@H]3[C@H]2O)c(=O)[nH]1 [cGMP]
- Hh: 1.0 and 1 ^··
